Literature values, collected in patent publication US20230248696A1, “LENALIDOMIDE PRODRUGS, POLYMERIC CONJUGATES, AND FORMULATIONS THEREOF, AND THEIR USES FOR THE TREATMENT OF MULTIPLE MYELOMA” (DYNAMIC BIOLOGICS INC., priority 2019, published 2023).
At least one read-out could not be matched to a standard name with certainty.

Compound: Nc1cccc2c1CN(C1CCC(=O)NC1=O)C2=O (racemic) [lenalidomide, 3-(4′ aminoisoindoline-1′-one)-1-piperidine-2,6-dione]
- effect of co-administration with food on extent of absorption (AUC): does not alter
